Among the data in PMC12233908 are binding values, retold here.

Amino acid sequences for entries named in this document (tags omitted). Residues count along the entry.
UniProt P56818, residues 46-501: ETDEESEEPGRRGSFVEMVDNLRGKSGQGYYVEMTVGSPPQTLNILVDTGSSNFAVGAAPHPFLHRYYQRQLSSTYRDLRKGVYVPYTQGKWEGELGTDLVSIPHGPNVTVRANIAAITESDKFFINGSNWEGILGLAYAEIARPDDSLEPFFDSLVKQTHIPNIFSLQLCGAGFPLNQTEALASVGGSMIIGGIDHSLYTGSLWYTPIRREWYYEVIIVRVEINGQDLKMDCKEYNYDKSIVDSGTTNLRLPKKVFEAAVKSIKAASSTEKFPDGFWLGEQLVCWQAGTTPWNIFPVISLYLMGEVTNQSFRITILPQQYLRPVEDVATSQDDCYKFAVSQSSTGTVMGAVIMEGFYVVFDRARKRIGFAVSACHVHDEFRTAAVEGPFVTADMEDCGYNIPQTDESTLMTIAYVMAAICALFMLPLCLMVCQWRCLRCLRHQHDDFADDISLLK

Results are given in words; binding and its absence hold for the method and conditions named. Binding seen in cells or lysates may run through a third protein. Some entries that bind do so weakly or less than the wild type. For some of these results: Sequences can lack the tags named with a protein.

Assay [1] concerns the target β-site APP-cleaving enzyme 1 (BACE1), endogenous in mouse brain (mouse (endogenous in brain)) (UniProt P56818). The assay can be described thus: co-IP; in vivo co-immunoprecipitation from brain lysates of Gnb5F/F and Gnb5-CCKO mice; endogenous proteins.
For the next assay, the target named is Myc-BACE1 (UniProt P56818). The assay can be described thus: co-IP; HEK293T cells co-transfected with tagged constructs; lysis in 20 mM Tris-HCl pH 7.4, 100 mM NaCl, 1 mM EDTA, 0.5% NP-40; anti-Myc or anti-HA antibody 12 h at 4 °C, Dynabeads Protein G; western blot. (In general: Immunoblotting shows a protein as a band on a membrane.)

B1: G protein subunit β5 (Gnb5), endogenous in mouse brain (protein, UniProt P62881-2 1-353)
chain: MATDGLHENETLASLKSEAESLKGKLEEERAKLHDVELHQVAERVEALGQFVMKTRRTLKGHGNKVLCMDWCKDKRRIVSSSQDGKVIVWDSFTTNKEHAVTMPCTWVMACAYAPSGCAIACGGLDNKCSVYPLTFDKNENMAAKKKSVAMHTNYLSACSFTNSDMQILTASGDGTCALWDVESGQLLQSFHGHGADVLCLDLAPSETGNTFVSGGCDKKAMVWDMRSGQCVQAFETHESDVNSVRYYPSGDAFASGSDDATCRLYDLRADREVAIYSKESIIFGASSVDFSLSGRLLFAGYNDYTINVWDVLKGSRVSILFGHENRVSTLRVSPDGTAFCSGSWDHTLRVWA
Take B1: the binding entry in assay [1] is on record as “binds”.

B2: HA-Gnb5 (protein, UniProt P62881-2 1-353)
chain: MATDGLHENETLASLKSEAESLKGKLEEERAKLHDVELHQVAERVEALGQFVMKTRRTLKGHGNKVLCMDWCKDKRRIVSSSQDGKVIVWDSFTTNKEHAVTMPCTWVMACAYAPSGCAIACGGLDNKCSVYPLTFDKNENMAAKKKSVAMHTNYLSACSFTNSDMQILTASGDGTCALWDVESGQLLQSFHGHGADVLCLDLAPSETGNTFVSGGCDKKAMVWDMRSGQCVQAFETHESDVNSVRYYPSGDAFASGSDDATCRLYDLRADREVAIYSKESIIFGASSVDFSLSGRLLFAGYNDYTINVWDVLKGSRVSILFGHENRVSTLRVSPDGTAFCSGSWDHTLRVWA
On to B2, for which, in the assay with Myc-BACE1, the binding entry is on record as “binds”.

B3: Gnb5 (28-102aa), first WD domain (domain or fragment, UniProt P62881-2 28-102)
chain: EERAKLHDVELHQVAERVEALGQFVMKTRRTLKGHGNKVLCMDWCKDKRRIVSSSQDGKVIVWDSFTTNKEHAVT
Consider B3, for which, in the assay with Myc-BACE1, the binding entry is “binds”.

B4: Gnb5 (28-102aa&p.S81L) (domain or fragment, UniProt P62881-2 28-102)
chain: EERAKLHDVELHQVAERVEALGQFVMKTRRTLKGHGNKVLCMDWCKDKRRIVSLSQDGKVIVWDSFTTNKEHAVT
Regarding B4, the binding entry with Myc-BACE1 was “no binding”.
